# Measurements as given in US20170001988A1, “PIPERIDINE AND PIPERAZINE DERIVATIVES AND THEIR USE IN TREATING VIRAL INFECTIONS AND CANCER” (THE UNITED STATES OF AMERICA, AS REPRESENTED BY THE …, priority 2013, published 2017).
# Test system: HCV-Luc
# Assay: HCV-Luc infection assay
# Format: cell-based
# Settings: Hepatitis C virus
smiles,measurement,value
"Clc1ccc(C(c2ccc(Cl)cc2)N2CCNCC2)cc1 [Cl, Cl, H, 1-(bis(4-Chlorophenyl)methyl)piperazine]",EC50,28 ± 5 nM
